This is an account of results in PMC11242413.

No constants are given. Whether binding was seen depends on the method and setting.

In this experiment the target is WW4 domain of a ubiquitin ligase WWP1 (UniProt Q9H0M0). As to the kind of experiment: NMR 15N CPMG relaxation dispersion; WW4 in the free state (no denaturant) at 2.0 mM, quick measurement; ΔR2eff values compared with those at the usual 250 µM; both purified.

For “WW4 domain of a ubiquitin ligase WWP1 (from UniProt Q9H0M0 494-532) (domain or fragment)”, the binding entry is “no binding (tested: 2.0 mM)”.
